Measured values published in US5763573A, “GTPase activating protein fragments” (Chiron Corporation, priority 1995, dated 1998).
“Also recorded” adds a separate entry of the source. Part of at least one peptide drawing is inferred or uncertain, most often the ends. No end group written: not given here.

Experiments:
Format in all cases: biochemical
[1] = system: ras p21 protein; assay: GDP/GTP ratio assay (PEI cellulose TLC) of p21-GTP hydrolysis with and without GAP; details: for inhibition of hydrolysis of p21-GTP (ratio of radioactive counts of GDP over GTP): FIG. 14; for change in the amount of GDP formed: absent GAP, over the range of peptide concentrations used
[2] = system: ras p21 protein; assay: Filter assay of ras p21 hydrolysis of 32-P gamma-GTP with and without GAP; details: for effect on hydrolysis of GTP (radioactive counts of ras p21-GTP complex on filter): presence and absence of GAP, 30 minutes at room temperature
Procedure: The above four peptides, in the following two experiments, were tested for their abilities to inhibit the hydrolysis of GTP by ras p21 protein, in the presence and absence of GAP. The first experiment involved peptides G65, G73 and 891. It was carried out as follows: purified wild type ras p21 protein was incubated with 0.25 μM 32-P gamma-GTP in 100 mM NaPO4, pH 6.8, 0.5 mM DTT, 0.5 mM EDTA, 0.005% Na cholate, and 0.5 mg/ml BSA for 15 minutes at 30° C. The mixture was then diluted ten fold with TNM buffer (comprising 20 mM Tris-HCl, pH 7.0, 100 mM NaCl, 5 mM MgCl2). 20 μl (0.05 μg of p21) of this mixture was then combined with 2 μl of the peptide in 25 mM NaOAc, pH 5.5 and incubated for 5 minutes at room temperature. The GAP assay was initiated by the addition of 12 ng GAP in 5 μl TNM buffer with 1 mg/ml BSA or 5 μl TNM BSA buffer for the GAP independent reactions, and the resulting mixture was incubated for 30 minutes at room temperature. The samples were then filtered through nitrocellulose membranes and washed three times with cold TNM. The filters were dried and their radioactivity counted. The y-axis in the charts indicate radioactive counts per minute for the radioactive ras p21-GTP complex. The x-axis indicate the amount of peptides added in nmoles. The first chart serves as a control. In the presence of GAP, the radioactive ras p21-GTP complex is hydrolyzed to GDP and ras p21 protein, thus reducing the resulting amount of radioactive p21-GTP bound to the filter and consequently, the radioactive counts detected. In the absence of GAP, the radioactive counts remained relatively high because of the lack of GAP stimulated hydrolysis.

[3] = system: ras p21-GTPγS; assay: Dissociation of GTPγS from ras p21-GTPγS complex
[4] = molecular target: N-ras (Homo sapiens, UniProt P01111); assay: Peptide mediated dissociation of GDP from ras p21-GDP complex (N-ras), filter assay; details: for dissociation of GDP from ras p21-GDP complex: general statement / FIG. 15 legend
[5] = 50 to 100 μM and above, in the presence of GAP
[6] = both in the presence and absence of GAP

Row | Sequence | inhibitory effect on p21-GTP hydrolysis ([1]; in the presence of GAP, control peptide) | effect on hydrolysis of GTP (radioactive counts of ras p21-GTP complex on filter) ([2]; FIG. 13) | inhibition of hydrolysis of p21-GTP (ratio of radioactive counts of GDP over GTP) ([1]; 10 μM, in the presence of GAP) | inhibition of hydrolysis of p21-GTP (ratio of radioactive counts of GDP over GTP) [1, 5] | change in the amount of GDP formed [1] | dissociation of GTPγS from ras p21-GTPγS complex [3] | effect on stimulation of hydrolysis of GTP by p21 [2, 6] | inhibition of ras p21 protein hydrolysis of GTP by the peptide alone ([2]; in the absence of GAP, FIG. 13) | bound [α-32P] GDP over time (dissociation of bound GDP) ([4]; N-ras, 10 μM and 50 μM peptide, FIG. 15) | effect of raising peptide concentration on GDP dissociated ([4]; N-ras, from 10 μM to 50 μM, FIG. 15) | dissociation of GDP from ras p21-GDP complex [4] | effect on stimulation of hydrolysis of GTP by p21 [1, 6]
1 | CLQKSVQHKWPTNTT [peptide G65] | no inhibitory effect | do not affect |  |  |  |  |  |  |  |  |  | 
2 | MRTRVVSGFVFLRLIC [peptide 891, MRTRVVSGFVFLRLIC] |  | adversely affects | Marginal inhibition | clearly inhibit | small but significant change | does not cause the dissociation | inhibit | significantly inhibits | decreased over time | increase in the rate and amount of GDP dissociated | mediate the dissociation of GDP; also recorded: causes dissociation | 
3 | TMRTRVVSGFVFLRLIC [cGAP 13] |  |  | Marginal inhibition | clearly inhibit | small but significant change | not the dissociation |  |  |  |  | mediate the dissociation of GDP | inhibit
